Data source: PubChem BioAssay AID686938 (Drosophila RNAi Screening Center, 2013)
Test: 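Fly genes required for calcium entry once internal stores are emptied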 (primary screen). System: Drosophila S2R+ cells. Reagents: long dsRNA against Drosophila genes, about 0.25 µg dsRNA per well, roughly 10,000 cells. Timing: 5 days of knock-down before the calcium assay. Challenge: thapsigargin (SERCA pump blocker) to empty calcium stores; entry signal taken 4 min after adding it. Read-out: 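Per-well fluo-4 fluorescence in two replicates, unnormalised, measured in resting cells and 4 min after store depletion by the SERCA blocker thapsigargin; ratio of the two present in few wells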. Direction: calcium entry signal: higher = stronger calcium signal after store depletion; resting calcium signal: higher = higher resting calcium signal. Call rule: 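Called when the plate z-score of the entry-to-rest ratio, mean of duplicates, falls below −3; wells with low overall dye signal (Fmax z below −2) or more than five off-targets excluded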. Meaning of the calls: active = strongly reduced calcium entry; inactive = no strong reduction.
The deposit covers about 23,000 reagents; shown is a random part of those with a known target gene and a result. Of all reagents, 75 (0.33%) got an active call. 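Raw plate signals without normalisation; calls rest on plate z-scores that were not deposited; ratio present for only 364 wells.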 The numbers tell different reagents against one gene apart. Names joined by + are all predicted targets of the reagent. Not stated in the record: the dose of the treatment.

| target gene | reagent no. | calcium entry signal, replicate 1 (fluorescence units) | calcium entry signal, replicate 2 (fluorescence units) | resting calcium signal, replicate 1 (fluorescence units) | resting calcium signal, replicate 2 (fluorescence units) | Outcome |
| --- | --- | --- | --- | --- | --- | --- |
| CG12133 | 1 | 2.32e7 | 2.94e7 | 1.25e7 | 1.32e7 | inactive |
| Larp4B | 1 | 2.48e7 | 2.79e7 | 1.39e7 | 1.47e7 | inactive |
| Larp4B | 2 | 3.30e7 | 3.07e7 | 1.57e7 | 1.40e7 | inactive |
| CG12438 | 1 | 2.79e7 | 3.97e7 | 1.31e7 | 1.66e7 | inactive |
| Ced-12 | 1 | 3.24e7 | 2.09e7 | 1.50e7 | 1.01e7 | inactive |
| fln | 1 | 3.74e7 | 4.43e7 | 1.71e7 | 2.91e7 | inactive |
| CG14327 | 1 | 3.12e7 | 5.55e7 | 1.73e7 | 5.99e7 | inactive |
| Cox17 | 1 | 5.61e7 | 3.25e7 | 2.71e7 | 1.54e7 | inactive |
| CG14200 | 1 | 4.29e7 | 4.16e7 | 2.33e7 | 2.04e7 | inactive |
| CG14200 | 2 | 3.47e7 | 3.64e7 | 1.62e7 | 1.37e7 | inactive |
| CG10663 | 1 | 2.97e7 | 2.89e7 | 1.66e7 | 1.43e7 | inactive |
| Cbs | 1 | 3.68e7 | 3.39e7 | 1.74e7 | 1.65e7 | inactive |
| CaMKI | 1 | 3.00e7 | 4.01e7 | 1.49e7 | 1.80e7 | inactive |
| hec | 1 | 3.49e7 | 3.80e7 | 1.72e7 | 1.79e7 | inactive |
| CG10814 | 1 | 2.41e7 | 2.92e7 | 1.07e7 | 1.32e7 | inactive |
| fsd | 1 | 2.25e7 | 4.04e7 | 1.09e7 | 1.56e7 | inactive |
| CG15221 | 1 | 3.84e7 | 4.44e7 | 1.96e7 | 2.10e7 | inactive |
| asRNA:CR31845 | 1 | 1.97e7 | 3.22e7 | 1.04e7 | 1.54e7 | inactive |
| asRNA:CR31845 | 2 | 3.46e7 | 2.92e7 | 1.41e7 | 1.20e7 | inactive |
| SH3PX1 | 1 | 3.45e7 | 4.45e7 | 1.97e7 | 2.17e7 | inactive |
| CG8003 | 1 | 3.45e7 | 2.02e7 | 2.38e7 | 9.07e6 | inactive |
| CG42376 + cin | 1 | 4.05e7 | 3.87e7 | 1.86e7 | 1.91e7 | inactive |
| RhoGAP1A | 1 | 5.44e7 | 5.17e7 | 2.59e7 | 2.16e7 | inactive |
| RhoGAP1A | 2 | 4.59e7 | 4.78e7 | 2.45e7 | 2.17e7 | inactive |
| Ubi-p63E | 1 | 2.98e7 | 7.41e7 | 1.44e7 | 3.12e7 | inactive |
| ple | 1 | 3.38e7 | 5.27e7 | 1.80e7 | 2.42e7 | inactive |
| CG30349 | 1 | 1.71e7 | 2.66e7 | 1.07e7 | 1.23e7 | active |
| CG30349 | 2 | 1.56e7 | 2.90e7 | 9.29e6 | 1.40e7 | inactive |
| Ir94g | 1 | 3.45e7 | 4.32e7 | 1.80e7 | 1.87e7 | inactive |
| CG7556 | 1 | 4.01e7 | 4.61e7 | 2.16e7 | 2.29e7 | inactive |
| Rh4 + sina | 1 | 2.28e7 | 3.50e7 | 1.16e7 | 2.49e7 | inactive |
| Hil | 1 | 4.39e7 | 3.75e7 | 2.00e7 | 1.84e7 | inactive |
| Hil | 2 | 1.70e7 | 3.00e7 | 9.43e6 | 1.27e7 | inactive |
| Obp73a | 1 | 3.23e7 | 6.05e7 | 1.75e7 | 2.29e7 | inactive |
| alpha-Man-Ib | 1 | 1.22e7 | 2.55e7 | 9.38e6 | 1.16e7 | inactive |
| Cirl | 1 | 3.56e7 | 2.99e7 | 1.98e7 | 1.76e7 | inactive |
| Cirl | 2 | 3.91e7 | 7.00e7 | 1.92e7 | 3.77e7 | inactive |
| Cirl | 3 | 4.03e7 | 4.20e7 | 2.25e7 | 1.85e7 | inactive |
| CG9864 | 1 | 5.65e7 | 5.96e7 | 2.54e7 | 2.94e7 | inactive |
| Cyp4d21 | 1 | 4.62e7 | – | 2.62e7 | – | inactive |
| Tnpo-SR | 1 | 4.71e7 | – | 2.75e7 | – | inactive |
| CG31266 | 1 | 3.85e7 | 3.78e7 | 1.80e7 | 5.37e7 | inactive |
| Cpr67B | 1 | 4.31e7 | 3.91e7 | 3.04e7 | 1.62e7 | inactive |
| CG17047 | 1 | 2.59e7 | 3.93e7 | 1.38e7 | 1.84e7 | inactive |
| Zwilch | 1 | 3.31e7 | 5.36e7 | 1.78e7 | 2.31e7 | inactive |
| l(2)k01209 | 1 | 4.50e7 | 4.42e7 | 1.84e7 | 2.01e7 | inactive |
| fit | 1 | 3.26e7 | 4.36e7 | 5.88e7 | 1.78e7 | inactive |
| MED23 + CG3700 | 1 | 3.88e7 | 4.53e7 | 2.00e7 | 2.19e7 | inactive |
| MED23 + CG3700 | 2 | 3.91e7 | – | 1.86e7 | – | inactive |
| CG7246 | 1 | 3.76e7 | 1.81e7 | 1.90e7 | 1.17e7 | inactive |
| CG3348 | 1 | 3.55e7 | 5.34e7 | 1.81e7 | 2.20e7 | inactive |
| DCTN4-p62 | 1 | 2.66e7 | 1.97e7 | 1.10e7 | 9.91e6 | inactive |
| lectin-33A | 1 | 2.54e7 | 3.94e7 | 1.32e7 | 1.84e7 | inactive |
| lectin-33A | 2 | 2.19e7 | 4.93e7 | 1.13e7 | 2.20e7 | inactive |
| CG32137 | 1 | 2.44e7 | 3.29e7 | 1.39e7 | 1.54e7 | inactive |
| CG32137 | 2 | 2.95e7 | 4.15e7 | 1.73e7 | 1.87e7 | inactive |
| mRpL42 | 1 | 4.55e7 | 4.15e7 | 2.03e7 | 1.77e7 | inactive |
| l(2)05714 | 1 | 3.62e7 | – | 1.79e7 | – | inactive |
| CG31689 | 1 | 4.27e7 | 5.53e7 | 1.98e7 | 2.23e7 | inactive |
| wun2 | 1 | 3.96e7 | 4.10e7 | 1.85e7 | 1.67e7 | inactive |
| Ostgamma | 1 | 5.17e7 | – | 2.71e7 | – | inactive |
| CG8243 | 1 | 5.50e7 | 3.35e7 | 2.20e7 | 1.56e7 | inactive |
| CG8243 | 2 | 3.34e7 | 3.22e7 | 1.95e7 | 1.38e7 | inactive |
| NPF | 1 | 2.26e7 | 2.89e7 | 1.10e7 | 5.48e7 | inactive |
| CG11885 | 1 | 2.52e7 | 2.73e7 | 1.30e7 | 1.39e7 | inactive |
| eRF3 | 1 | 3.51e7 | 2.56e7 | 1.82e7 | 1.47e7 | inactive |
| ppk20 | 1 | 3.66e7 | 5.27e7 | 1.84e7 | 1.82e7 | inactive |
| CG13794 | 1 | 3.41e7 | 4.70e7 | 1.53e7 | 1.90e7 | inactive |
| Ugt305A1 | 1 | 3.61e7 | 4.25e7 | 1.91e7 | 2.00e7 | inactive |
| CG18417 | 1 | 2.45e7 | 4.10e7 | 1.27e7 | 1.55e7 | inactive |
| TwdlS | 1 | 2.54e7 | 4.04e7 | 1.41e7 | 1.79e7 | inactive |
| Acp63F | 1 | 3.51e7 | 4.20e7 | 1.79e7 | 1.80e7 | inactive |
| wol | 1 | 5.57e7 | – | 2.51e7 | – | inactive |
| CG3515 | 1 | 3.66e7 | 3.71e7 | 1.73e7 | 1.65e7 | inactive |
| CG11095 | 1 | 2.26e7 | 2.93e7 | 1.08e7 | 1.37e7 | inactive |
